From article PMC7886318, “Nanobody generation and structural characterization of Plasmodium falciparum 6-cysteine protein Pf12p” (Biochemical Journal, 2021)
These are yes or no findings as the source states them, for the method shown.

By UniProt entry, the sequences of proteins in these tests, tags left out. Residues count along the entry.
UniProt Q8I1Y0, residues 21-368: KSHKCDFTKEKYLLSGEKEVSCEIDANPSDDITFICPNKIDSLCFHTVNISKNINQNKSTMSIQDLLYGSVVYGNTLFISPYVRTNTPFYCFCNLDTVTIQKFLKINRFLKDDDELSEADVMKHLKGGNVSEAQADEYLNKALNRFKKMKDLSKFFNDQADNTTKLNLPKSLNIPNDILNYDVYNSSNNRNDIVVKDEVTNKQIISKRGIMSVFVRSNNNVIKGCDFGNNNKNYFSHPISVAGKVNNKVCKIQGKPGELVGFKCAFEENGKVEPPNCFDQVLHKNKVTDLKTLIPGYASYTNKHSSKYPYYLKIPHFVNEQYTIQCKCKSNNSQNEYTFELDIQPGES

Tests used:
[1] = biological target: Pf12p D1D2 (Plasmodium falciparum) (UniProt C6KSX1); assay: SEC; 100 ug Pf12p or Pf12 incubated with Pf41 at 1:1 molar ratio for 1 h at RT; SD 200 3.2/300 in 20 mM HEPES pH 7.5, 150 mM NaCl; Pf12, Pf12p and Pf41 also run singly; fractions on SDS-PAGE; both purified
[2] = biological target: Pf41 D1D2 (Plasmodium falciparum) (UniProt Q8I1Y0); assay: as above
[3] = biological target: His-tagged Pf41 (Plasmodium falciparum) (UniProt Q8I1Y0); assay: BLI; His-tagged Pf41 (10 or 20 ug/ml) loaded on Ni-NTA sensors; untagged Pf12 D1D2 or untagged Pf12p D1D2 in solution, 16-500 nM or 31-1000 nM; PBS pH 7.4, 0.1% BSA, 0.05% Tween-20, 25 C; 1:1 fit; both purified

B1: Pf12p D1D2 (domain or fragment, UniProt C6KSX1 24-341)
chain: NGVCDFSSEGLSLLPEEKLDFSVSRNVDKLSDENNVRHCVHFSKGFEYLRFICPMRKDNYEGIEIRPVECFEYIHIEGREHKLSEILKGSLYEKSINDNIMTRDVFIPPTIYEDMFFECTCDNSLTFKNNMIGIRGIMKIHLKKNILYGCDFDHDEKLMKNKTAFTNFYDKQKILPLIGNNNNDDDNNDDDNNNDNNNNDNNNNNNNNNNNNNNNNNNNITCNVTIKKSQVYLGIICPDGYTLYPNDCFKNVIYDNNIIIPLKKIIPHDILYHQDKNKRITFASFTLNINENPPGFTCYCIKDQTNINNPLIVNFHFS
With B1 the binding [1] was “no binding”, the binding [2] was “no binding” and the binding [3] was “no binding (tested: 500 nM)”.
